Assay results as given in PMC5490399, “Glycosaminoglycan Binding and Non-Endocytic Membrane Translocation of Cell-Permeable Octaarginine Monitored by Real-Time In-Cell NMR Spectroscopy” (Pharmaceuticals, 2017).
Values joined by “and” are separate entries in the source; they are usually repeats but may differ in a detail not shown here. Identical values can stand only once.

Key:
ITC of R8 with heparin = format: binding, porcine; conditions: 25 °C
[1] = ITC of R8 with EPC/EPG LUV (model cell membrane); format: binding; conditions: 25 °C
[2] = 10 mM Tris-HCl, 15 mM NaCl, pH 7.4

## CC(=O)N[C@@H](CCCNC(=N)N)C(=O)N[C@@H](CCCNC(=N)N)C(=O)N[C@@H](CCCNC(=N)N)C(=O)N[C@@H](CCCNC(=N)N)C(=O)N[C@@H](CCCNC(=N)N)C(=O)N[C@@H](CCCNC(=N)N)C(=O)N[C@@H](CCCNC(=N)N)C(=O)N[C@@H](CCCNC(=N)N)C(N)=O [R8, octaarginine]
ITC of R8 with heparin; [2]
  ΔH°: -9.6 ± 0.53 kcal/mol
ITC of R8 with heparin; pH 7.4, TΔS° = ΔH° − ΔG°
  TΔS°: 1.3 ± 0.54 kcal/mol
ITC of R8 with heparin; pH 7.4, ΔG° = −RTlnK
  ΔG° (binding free energy): -10.9 kcal/mol and -10.9 ± 0.10 kcal/mol
[1]; [2]
  ΔH°: -6.3 ± 0.10 kcal/mol
[1]; 10 mM Tris-HCl, 15 mM NaCl, pH 7.4, R8 (51 μM) injected into EPC/EPG LUV (500 μM), PC/PG = 4/1, molar ratio lipid/peptide, single site binding model
  Binding Stoichiometry (n), lipid/R8: ~ 100 and 100
[1]; pH 7.4, TΔS° = ΔH° − ΔG°
  TΔS°: 2.1 ± 0.10 kcal/mol
[1]; pH 7.4, ΔG° = −RTlnK
  ΔG° (binding free energy): -8.4 kcal/mol and -8.4 ± 0.10 kcal/mol
